## Primary screen of a compound library

The chains behind the UniProt entries cited, without tags or fusion partners. Residues count along the entry.
UniProt A4I591, 1-473: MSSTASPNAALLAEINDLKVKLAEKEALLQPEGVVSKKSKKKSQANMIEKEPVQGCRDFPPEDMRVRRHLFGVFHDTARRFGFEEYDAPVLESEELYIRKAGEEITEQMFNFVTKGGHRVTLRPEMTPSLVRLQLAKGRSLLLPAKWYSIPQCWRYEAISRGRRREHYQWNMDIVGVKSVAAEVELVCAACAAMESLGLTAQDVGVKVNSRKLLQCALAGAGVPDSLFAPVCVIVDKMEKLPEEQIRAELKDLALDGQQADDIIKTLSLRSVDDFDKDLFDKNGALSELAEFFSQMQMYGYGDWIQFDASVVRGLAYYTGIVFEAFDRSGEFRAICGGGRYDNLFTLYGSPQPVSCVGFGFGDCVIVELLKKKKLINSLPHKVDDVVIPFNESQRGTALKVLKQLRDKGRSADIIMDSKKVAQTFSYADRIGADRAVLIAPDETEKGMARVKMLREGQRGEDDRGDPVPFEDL
UniProt P9WFT3, whole entry: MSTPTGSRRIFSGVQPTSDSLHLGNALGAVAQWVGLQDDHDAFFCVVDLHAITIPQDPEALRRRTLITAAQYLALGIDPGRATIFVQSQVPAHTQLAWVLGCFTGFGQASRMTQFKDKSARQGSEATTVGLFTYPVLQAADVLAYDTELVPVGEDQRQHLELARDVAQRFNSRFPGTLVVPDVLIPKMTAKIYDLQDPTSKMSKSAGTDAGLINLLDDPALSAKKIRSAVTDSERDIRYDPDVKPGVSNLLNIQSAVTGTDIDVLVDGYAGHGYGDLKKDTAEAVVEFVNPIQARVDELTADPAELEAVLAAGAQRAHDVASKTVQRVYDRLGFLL

Measurements from “University of Dundee, Small-Polar-MMV Screening Library” (2021), ChEMBL document CHEMBL3988442.

LiHisRS: 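Enzyme assay of histidyl-tRNA synthetase; the read-out is not stated. Target: Histidine-tRNA ligase, Leishmania infantum (UniProt A4I591). Concentration: 30 µM. Higher reads as stronger inhibition (inferred: compounds with an IC50 in retests scored well above the rest). The assay is labelled LdHisRS but filed under L. infantum. About 69,000 compounds were tested under these conditions; 0.6% (about 410) showed 50% or more at least once.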
MtTrpRS: 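Enzyme assay of tryptophanyl-tRNA synthetase; the read-out is not stated. Target: Tryptophan-tRNA ligase, Mycobacterium tuberculosis (UniProt P9WFT3). Compounds at 10 µM. Higher most likely means stronger inhibition; the record gives no direction and few retests gave an IC50. Of about 65,000 compounds tested this way, about 64 (0.098%) reached 50% or more in at least one test.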

Each number is a percent effect as filed. The controls that fix the scale are not given in the record; negative values are as filed. Compounds were drawn at random from those tested, without regard to their results.

With COc1cccn(CC(=O)N(C)CCC2CCOCC2)c1=O the screen gave LiHisRS: 91.2%; MtTrpRS: -0.7524%.
With c1ccc(CN2CCOC[C@H]2c2nc(-c3ccncc3)c[nH]2)nc1 the screen gave LiHisRS: 13.51%; MtTrpRS: 3.585%.
With CN(C)C(=O)C1CCN(c2cncc(-n3cccn3)n2)CC1 the screen gave LiHisRS: 0.8929%; MtTrpRS: 5.972%.
With Cc1csc2ncn(C(C)Cc3cccnc3)c(=O)c12 (stereo not drawn) the screen gave LiHisRS: 15.87%; MtTrpRS: 1.321%.
With O=C(NCCO)c1sc2ncccc2c1C1CNCCO1 (stereo not drawn) the screen gave LiHisRS: 15.6%; MtTrpRS: -3.763%.
With COc1cccc2cc(CNC(=O)N3CCCC(O)C3)oc12 (stereo not drawn) the screen gave LiHisRS: 3.371%; MtTrpRS: 0.7081%.
With Cn1cc(CCC(=O)N2CCCN(c3ncccc3C#N)CC2)cn1 the screen gave LiHisRS: 0%; MtTrpRS: 14.34%.
With CCN(CC)C(=O)Cn1ccc2cc(NC(C)=O)ccc21 the screen gave LiHisRS: 17.86%; MtTrpRS: -3.327%.
With O=C1C(CS(=O)(=O)Nc2ccc(Br)cc2)=NC(=O)n2cccc21 the screen gave LiHisRS: 0%; MtTrpRS: -4.412%.
With CCc1nc(C(=O)N2CCN(C(=O)CCc3ccccc3)CC2)c[nH]1 the screen gave LiHisRS: 1.667%; MtTrpRS: -4.584%.
With CCS(=O)(=O)N1CC[C@H]2OCC[C@@]2(c2nnc(C)o2)C1 the screen gave LiHisRS: 18.42%; MtTrpRS: -1.082%.
With COCCNC(=O)[C@H]1C[C@@H]2CCN(CCc3ccccc3)C[C@@H]2O1 the screen gave LiHisRS: 7%; MtTrpRS: -4.321%.
With CC(NCC1(N(C)C)CCOCC1)c1ccc(S(C)(=O)=O)cc1 (stereo not drawn) the screen gave LiHisRS: 10.34%; MtTrpRS: -0.2447%.
With CC(C)OCCN(Cc1cccc(O)c1)C1CCC(O)CC1 (stereo not drawn) the screen gave LiHisRS: 7.547%; MtTrpRS: 0.3353%.
With OC(CN1CCN(Cc2nc(C3CC3)no2)CC1)c1ccccc1 (stereo not drawn) the screen gave LiHisRS: 7.143%; MtTrpRS: -1.038%.
With CN(C)CC(=O)N1Cc2nc(C(=O)NCc3ccncc3)oc2C1 the screen gave LiHisRS: 13.21%; MtTrpRS: -0.1049%.
With COc1cccc(-c2cc(-c3nc(CN4CCN(C)CC4)no3)[nH]n2)c1 the screen gave LiHisRS: 9.524%; MtTrpRS: -5.285%.
With O=C(NCCc1ccccc1)N1CCCCC1C1OCCO1 (stereo not drawn) the screen gave LiHisRS: 0%; MtTrpRS: -5.121%.
With Cc1n[nH]c(C2CN(C(=O)c3cc4c(s3)CCC4)CCO2)n1 (stereo not drawn) the screen gave LiHisRS: 10.17%; MtTrpRS: -1.146%.
With Cc1cc(C(=O)N2CCC3(CCNCC3)CC2)c2cccc(C)c2n1 the screen gave LiHisRS: 27.71%; MtTrpRS: -2.311%.
With O=C(c1ccc[nH]1)N1CCc2nnc(Cn3cccn3)n2CC1 the screen gave LiHisRS: 5.769%.
With Cc1cc(C)n(CC2CCCN2C(=O)c2ccc3nnc(C)n3c2)n1 (stereo not drawn) the screen gave LiHisRS: 1.724%; MtTrpRS: -9.595%.
With O=C(C1CCOCC1)N(CCc1ccccc1)C1CCOC1 (stereo not drawn) the screen gave LiHisRS: 12.61%; MtTrpRS: 13.2%.
With Cc1oc(-c2nc(C#N)c(NC(C)(C)C)o2)cc1S(=O)(=O)N1CCCC1 the screen gave LiHisRS: 7.895%; MtTrpRS: 0.2101%.
With O=C(O)[C@@H]1CN(C(=O)CCN2CCCCC2)C[C@H]1c1ccccc1 the screen gave LiHisRS: 16.81%; MtTrpRS: -3.266%.
With COCc1csc(NC(=O)NCc2ccccn2)n1 the screen gave LiHisRS: 14.29%; MtTrpRS: 8.622%.
With CCN(CC)c1nc2sc(C(=O)NC(C)(C)C(=O)OC)cc2s1 the screen gave LiHisRS: 1.653%; MtTrpRS: -1.095%.
With CC(C)S(=O)(=O)CC(=O)N(Cc1ccsc1)c1ccccc1 the screen gave LiHisRS: 17.02%; MtTrpRS: -3.109%.
With O=C(Nc1ccccn1)NC1CCN(c2ccccc2OC(F)F)C1 (stereo not drawn) the screen gave LiHisRS: 17.65%; MtTrpRS: 1.563%.
With CCc1cc(N2CCC(NCCc3ccccc3F)CC2)nc(C)n1 the screen gave LiHisRS: 20.48%; MtTrpRS: 0.153%.
With CCNC(=O)CCC(=O)Nc1ccc2nn(C(C)C)cc2c1 the screen gave LiHisRS: 27.27%; MtTrpRS: 7.636%.
With Cc1ccc(S(=O)(=O)N2CCCC(c3n[nH]cc3C(=O)N(C)C)C2)cc1 (stereo not drawn) the screen gave LiHisRS: 1.408%; MtTrpRS: -2.921%.
With Cc1cnc(C(=O)NCC2CCOc3ccccc3C2)cn1 (stereo not drawn) the screen gave LiHisRS: 3.101%; MtTrpRS: -0.08211%.
With Cc1cccc(C(C(=O)N(C)Cc2cc(C)no2)N(C)C)c1 (stereo not drawn) the screen gave LiHisRS: 5.208%; MtTrpRS: -3.638%.
With Cn1ccnc1CN1CCN(CC(=O)NCC(F)(F)F)CC1 the screen gave LiHisRS: 33.33%; MtTrpRS: -1.174%.
With Cc1nc(C(C)C)sc1CNC(=O)CCCN1CCCCC1 the screen gave LiHisRS: 30.14%; MtTrpRS: 5.663%.
With COc1ccc(CN2CC(O)CN(C(=O)OCC(C)(C)C)CC2=O)cc1 (stereo not drawn) the screen gave LiHisRS: 14.29%.
With CCc1ccc(C(=O)N(CC(F)(F)F)C2CCCOC2)o1 (stereo not drawn) the screen gave LiHisRS: 11.11%; MtTrpRS: -5.489%.
With CN(Cc1ccn[nH]1)Cc1c[nH]nc1-c1ccc(F)cc1 the screen gave LiHisRS: -53.33%; MtTrpRS: -2.805%.
With NC(=O)CS(=O)(=O)Cc1csc(-c2ccccc2)n1 the screen gave LiHisRS: 53.01%; MtTrpRS: -2.98%.
With COCCN1C(=O)C[C@@H]2[C@H]1CCN2C(=O)COc1ccccc1 the screen gave LiHisRS: 17.65%; MtTrpRS: 1.055%.
With O[C@@H]1C[C@@](CNCc2ccccn2)(COc2cccnc2)C[C@@H]1O the screen gave LiHisRS: 12.16%; MtTrpRS: -0.2276%.
With CN(C)C(=O)c1ccc(C(C(=O)O)N(C)Cc2ccccc2Cl)cc1 (stereo not drawn) the screen gave LiHisRS: 23.08%; MtTrpRS: 1.342%.
With O=C(C1CCC1)N1CCC(=O)N(C2CC2)Cc2cc(F)ccc21 the screen gave LiHisRS: 14.29%.
With CCOc1ccc(CN(CCC#N)CCN2CCOCC2)cc1OC the screen gave LiHisRS: 14.29%; MtTrpRS: 5.372%.
With Cc1nc(CN2CCCC(NCc3ccc(Cl)s3)C2)no1 (stereo not drawn) the screen gave LiHisRS: 15.65%; MtTrpRS: 3.603%.
With CCN(C(=O)CN1CCCN(c2nc(C)ns2)CC1)C1CC1 the screen gave LiHisRS: 7.08%; MtTrpRS: -3.673%.

Some entries from above, unchanged:

compound	LiHisRS	MtTrpRS
Cc1cc(C(=O)N2CCC3(CCNCC3)CC2)c2cccc(C)c2n1	27.71	-2.311
CN(Cc1ccn[nH]1)Cc1c[nH]nc1-c1ccc(F)cc1	-53.33	-2.805
COCc1csc(NC(=O)NCc2ccccn2)n1	14.29	8.622